# Values quoted from earlier work, collected in US8653052B2, “Drug combination and its use in the treatment of muscle loss” (Acacia Pharma Limited, priority 2007, dated 2014).
# Structures can show the parent of a compound that is named as a salt.
# Tested on: rats and mice bearing highly cachectic tumors
# Details: cited from earlier work
smiles,measurement,value
"COc1ccc(CC(C)NCC(O)c2ccc(O)c(NC=O)c2)cc1 (racemic) [racemic formoterol, (±)-N-[2-Hydroxy-5-[1(R*)-hydroxy-2-[1(R*)-methyl-2-(4-methoxyphenyl)ethylamino]ethyl]phenyl]formamide fumarate (2:1) monohydrate]",Effect on muscle wasting,reversal of the muscle-wasting process
